These are yes or no findings as the source states them, for the method shown. In cells and extracts the contact can be indirect. Some binding calls cover weakened binding; strength is not graded here.
Experiments:
[1] = biological target: T1, Mouse Prominin-1 (Prom1) (mouse (endogenous in incisor tissue and CLESCs)) (UniProt O54990); test: proximity ligation; in situ PLA (Duolink) on sagittal sections of P7 mouse lower incisor CLE; anti-Prom1 conjugated with MINUS probe and anti-Glis2 with PLUS probe, overnight at 4°C
T1 sequence: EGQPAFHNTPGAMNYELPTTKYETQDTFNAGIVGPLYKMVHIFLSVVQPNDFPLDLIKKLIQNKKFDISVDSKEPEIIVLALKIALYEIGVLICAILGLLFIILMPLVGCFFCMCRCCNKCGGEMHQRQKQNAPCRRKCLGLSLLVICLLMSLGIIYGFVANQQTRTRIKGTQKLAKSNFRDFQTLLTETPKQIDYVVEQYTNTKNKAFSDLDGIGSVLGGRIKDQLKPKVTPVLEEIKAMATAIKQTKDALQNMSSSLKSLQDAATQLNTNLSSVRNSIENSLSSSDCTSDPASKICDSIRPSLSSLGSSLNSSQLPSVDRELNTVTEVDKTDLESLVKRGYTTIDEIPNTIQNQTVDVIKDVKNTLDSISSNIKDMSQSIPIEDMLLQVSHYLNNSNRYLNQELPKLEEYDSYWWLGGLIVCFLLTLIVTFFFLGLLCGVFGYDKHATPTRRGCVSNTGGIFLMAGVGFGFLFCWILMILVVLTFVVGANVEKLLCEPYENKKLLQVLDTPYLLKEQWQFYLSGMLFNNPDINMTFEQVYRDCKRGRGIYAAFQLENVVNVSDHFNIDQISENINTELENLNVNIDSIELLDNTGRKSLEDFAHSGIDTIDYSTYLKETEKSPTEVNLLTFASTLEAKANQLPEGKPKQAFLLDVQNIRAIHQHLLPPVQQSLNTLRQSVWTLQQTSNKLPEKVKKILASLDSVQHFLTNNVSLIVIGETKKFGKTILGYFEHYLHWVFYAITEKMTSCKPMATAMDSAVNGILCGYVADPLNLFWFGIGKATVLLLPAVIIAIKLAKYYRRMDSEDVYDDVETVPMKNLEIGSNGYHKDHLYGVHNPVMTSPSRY

[2] = biological target: T1, Mouse Prominin-1 (Prom1) (mouse (endogenous in incisor tissue and CLESCs)); test: proximity ligation; PLA in cultured CLESCs starved for 4 days, then treated with SHH (100 ng/ml) and importazole (40 uM) or DMSO for the indicated times

binding [1]: binds | binding [2]: binds
B1: Mouse Glis2 (protein, UniProt Q8VDL9 1-521)
chain: MHSLDEPLDLKLSITKLRAAREKRERTLGVVRHHALHRELGLVDDSPAPGSPGSPPPGFLLNPKFPEKVDGRFSAAPLVDLSLSPPSGLDSPNGSSSLSPECQGNGDLPPLPTAVDFQPLRYLDGVPSSFQFFLPLGSGGALHLPASSFLPPPKDKCLSPELPLAKQLVCRWAKCNQLFELLQDLVDHVNDHHVKPEQDARYCCHWEGCARHGRGFNARYKMLIHIRTHTNEKPHRCPTCNKSFSRLENLKIHNRSHTGEKPYVCPYEGCNKRYSNSSDRFKHTRTHYVDKPYYCKMPGCHKRYTDPSSLRKHIKAHGHFVSHEQQELLQLRPPPKPPLPTPDSGSYVSGAQIIIPNPAALFGGPSLPGLPLPLPPGPLDLSALACGNGGGGGGGIGPGLPGSVLPLNLAKNPLLPSPFGAGGLGLPVVSLLGGSAGSKAEGEKGRGSVPARVLGLEDHKTPLERTERSRSRPSPDGLPLLPGTVLDLSTGNSAASSPEVLTPGWVVIPPGSVLLKPAVVN

Reference: paper PMC6331727
